From paper PMC4707540

Protein sequences, listed by entry. Tags and fused reporters are not part of them.
UniProt P40337: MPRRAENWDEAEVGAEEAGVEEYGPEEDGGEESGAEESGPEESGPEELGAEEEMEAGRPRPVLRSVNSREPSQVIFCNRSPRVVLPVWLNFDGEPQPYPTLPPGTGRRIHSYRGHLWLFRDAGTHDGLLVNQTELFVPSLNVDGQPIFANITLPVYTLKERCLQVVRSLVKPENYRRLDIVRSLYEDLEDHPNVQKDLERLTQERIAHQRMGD

Tests used:
[1] = biological target: TDP-43-FLAG devoid of RRM1 (ΔRRM1) (human) (UniProt Q13148); assay: co-IP; lysates of HEK293A cells co-transfected with a FLAG-tagged protein (TDP-43 or SOD1 forms) and HA-VHL, 48 h after transfection; anti-FLAG M2 affinity gel at 4 °C overnight, blotted with anti-HA; co-IP buffer (20 mM HEPES pH 7.4, 125 mM NaCl, 2 mM EDTA, 1% Triton X-100, 10% glycerol); in some panels cells treated with lactacystin (10 μM, 8 h) and/or paraquat (0.4 mM, 8 h)
[2] = biological target: TDP-43-FLAG devoid of RRM2 (ΔRRM2) (human) (UniProt Q13148); assay: as above

Question: For “human VHL tagged with HA (HA-VHL) (from UniProt P40337 1-213)”, which binding [1] is on record?
Answer: binds

Question: And the binding [2]?
Answer: no binding

No constants are given. Whether binding was seen depends on the method and setting. Binding seen in cells or lysates may run through a third protein. For some assays here: Binding calls can cover weak binding; strength is not graded here.
